A short description of the experiment: qHTS for identification of novel therapeutic agents for treatment of microphthalmiaassociated transcription factor (MiT) renal cell carcinoma (RCC) (AID 1963991). The settings on record: CellTiter-Glo, 48 h; for z-score: stronger effect = lower value. The gist of the method:
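Three TFE3-fusion RCC lines (UOK109, UOK124, UOK145), 500 cells/well in complete medium, were treated with MIPE 4.0 compounds for 48 hours at 37 C. Viability was by CellTiter-Glo luminescence, normalized to DMSO (100%) and empty wells (0%); curves fitted over 11 concentrations.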
On the technique in general: qHTS replaces the single test concentration by a dilution series.

Setting [1] is: TFE3-RCC UOK109 viability, measured here: UOK109 Z-AUC.
Setting [2] is: TFE3-RCC viability, measured here: UOK124 Z-AUC.
Setting [3] is: TFE3-RCC viability, measured here: UOK124 cell viability.
Setting [4] is: TFE3-RCC viability, measured here: UOK145 Z-AUC.
Where [5] appears, read: TFE3-RCC viability, measured here: UOK145 cell viability.

The other results are listed elsewhere or left out. These are further read-outs of the screen, such as a control signal, another cell line or another target. No call is given for them. Compounds called inactive in the main read-out are mostly missing here. Potencies come from curve fits of mixed quality, noted in brackets.

As a reminder, the AC50 is the concentration giving half of the maximal activity seen.

Take `Cc1c(NC(=O)c2ccc(C(C)(C)C)cc2)cccc1-c1cn(C)c(=O)c(Nc2ccc(C(=O)N3CCOCC3)cc2)n1`: the z-score under setting [1] is -0.041, the z-score under setting [2] turned out to be 0.647 and the z-score under setting [4] stood at 0.761. Besides, the AC50 is 26.4 µM [falling, single point] under setting [3] and 20.9 µM [falling, partial curve, poor fit] under setting [5].

Regarding `COc1ccc(-c2oc3c(CC=C(C)C)c(OC4O[C@H](CO)[C@@H](O)[C@H](O)[C@@H]4O)cc(O)c3c(=O)c2OC2O[C@@H](C)[C@H](O)[C@@H](O)[C@@H]2O)cc1` (stereo not given in full), the z-score was 0.504 under setting [1], 0.236 under setting [2] and -0.238 under setting [4]. Besides, the AC50 is, setting by setting: under setting [3], 14.8 µM [falling, partial curve]; under setting [5], 20.9 µM [falling, partial curve].

Regarding `NCc1c[nH]c(=S)n1[C@H]1CCc2c(F)cc(F)cc2C1`, the z-score under setting [1] stood at 0.598, the z-score under setting [2] came out at 0.386 and the z-score under setting [4] turned out to be 0.643. The AC50 was 23.5 µM [falling, single point] under setting [3] and 23.5 µM [falling, partial curve, poor fit] under setting [5].

In the case of `COc1c(Cl)cc2c([nH]c3cnccc32)c1NC(=O)c1cccnc1C`, the z-score is, setting by setting: under setting [1], -0.177; under setting [2], -0.0359; under setting [4], 0.53. Moreover, the AC50 was 23.5 µM [falling, partial curve] under setting [3] and 3.32 µM [falling, full curve] under setting [5].

In turn, `CCC(=C(c1ccccc1)c1ccc(OCCN(C)C)cc1)c1ccccc1` showed a z-score under setting [1] of 0.688, a z-score under setting [2] of -0.516 and a z-score under setting [4] of 0.493. For the same compound, the AC50 was 23.5 µM [falling, partial curve] under setting [3] and 33.2 µM [falling, single point] under setting [5].

As for `CC=C(C(=CC)c1ccc(O)cc1)c1ccc(O)cc1`, the z-score was 0.761 under setting [1], 0.158 under setting [2] and -0.294 under setting [4]. In addition, the AC50 is 18.7 µM [falling, single point] under setting [3] and 23.5 µM [falling, single point] under setting [5].
